Data: the supplement of paper PMC7661543
± gives the standard deviation of the averaged measurements. Differences between knockout arms are mostly noise.

Test system: ZR-75-1
Experiment: relative cell number vs DMSO control (72 h) (% of DMSO); higher = less growth inhibition (more cells)
Procedure: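 QMAP-Seq: a pool of 5 breast cancer cell lines (ZR-75-1, SKBR3, HCC-38, MDA-MB-231, BT-20), each carrying 12 doxycycline-inducible Cas9 sgRNA perturbations (11 knockouts plus non-targeting sgNT), was treated with compounds for 72 h at four 10-fold doses (10 nM-10 uM or 1 nM-1 uM range). Barcodes were amplified and sequenced, and cell number was interpolated from 293T spike-in standard curves. The result is expressed as % of the median of DMSO wells. Two biological replicates.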

[1] = sgRNA knockout: sgATF3, 1000 nM
[2] = sgRNA knockout: sgATF3, 10000 nM
[3] = sgRNA knockout: sgATF4, 1000 nM
[4] = sgRNA knockout: sgATF4, 10000 nM
[5] = sgRNA knockout: sgATF6, 1000 nM
[6] = sgRNA knockout: sgATF6, 10000 nM
[7] = sgRNA knockout: sgATG7, 1000 nM
[8] = sgRNA knockout: sgATG7, 10000 nM
[9] = sgRNA knockout: sgERN1, 1000 nM
[10] = sgRNA knockout: sgERN1, 10000 nM
[11] = sgRNA knockout: sgHSF2, 1000 nM
[12] = sgRNA knockout: sgHSF2, 10000 nM
[13] = sgRNA knockout: sgNFE2L2, 10 nM
[14] = sgRNA knockout: sgNFE2L2, 100 nM
[15] = sgRNA knockout: sgNFE2L2, 1000 nM
[16] = sgRNA knockout: sgNFE2L2, 10000 nM
[17] = sgRNA knockout: sgSLC35F2, 10 nM
[18] = sgRNA knockout: sgSLC35F2, 100 nM
[19] = sgRNA knockout: sgSLC35F2, 1000 nM
[20] = sgRNA knockout: sgSLC35F2, 10000 nM
[21] = sgRNA knockout: sgXBP1, 1000 nM
[22] = sgRNA knockout: sgXBP1, 10000 nM

SMILES	relative cell number (sgRNA knockout: sgATF3, 10 nM)	relative cell number (sgRNA knockout: sgATF3, 100 nM)	relative cell number [1]	relative cell number (sgRNA knockout: sgATF4, 10 nM)	relative cell number (sgRNA knockout: sgATF4, 100 nM)	relative cell number [3]	relative cell number (sgRNA knockout: sgATF6, 10 nM)	relative cell number (sgRNA knockout: sgATF6, 100 nM)	relative cell number [5]	relative cell number (sgRNA knockout: sgATG7, 10 nM)	relative cell number (sgRNA knockout: sgATG7, 100 nM)	relative cell number [7]	relative cell number (sgRNA knockout: sgERN1, 10 nM)	relative cell number (sgRNA knockout: sgERN1, 100 nM)	relative cell number [9]	relative cell number (sgRNA knockout: sgHSF2, 10 nM)	relative cell number (sgRNA knockout: sgHSF2, 100 nM)	relative cell number [11]	relative cell number [13]	relative cell number [14]	other results
Cc1ccc(C(=O)N(CCCN)[C@@H](c2oc3cc(Cl)ccc3c(=O)c2Cc2ccccc2)C(C)C)cc1	30.7 ± 7.3	26.5 ± 0.8	40.6 ± 1.4	42.5 ± 12	40.4 ± 11	36.4 ± 5.7	32.8 ± 11	33.7 ± 9.5	32.5 ± 2.7	21.4 ± 14	28.6 ± 1.4	41.8 ± 1.4	35.6 ± 7.7	32.6 ± 0.78	39.2 ± 6	30.4 ± 7	24.3 ± 1.7	34.9 ± 1.4	25.8 ± 2.1	25.3 ± 1.9	relative cell number [2]: 4.93 ± 0.52; relative cell number [4]: 3.98 ± 1.5; relative cell number [6]: 3.99 ± 0.1; relative cell number [8]: 2.15 ± 0.18; relative cell number [10]: 3.19 ± 1.2; relative cell number [12]: 3 ± 0.047; relative cell number [15]: 31.9 ± 2.8; relative cell number [16]: 5.45 ± 1.1; relative cell number [17]: 16.5 ± 1.6; relative cell number [18]: 19.69 ± 0.18; relative cell number [19]: 35.7 ± 27; relative cell number [20]: 2.17 ± 0.81; relative cell number (sgRNA knockout: sgXBP1, 10 nM): 30.4 ± 5.8; relative cell number (sgRNA knockout: sgXBP1, 100 nM): 27.2 ± 3.5; relative cell number [21]: 33.5 ± 0.54; relative cell number [22]: 2.73 ± 0.68
Cc1ccc(S(=O)(=O)OCC(=O)Nc2ccc(C(=O)O)c(O)c2)cc1	93.7 ± 9.6	117 ± 5.9	113 ± 13	133 ± 59	93.8 ± 5.3	93.3 ± 13	111 ± 66	92.5 ± 57	106 ± 8	97.4 ± 26	159 ± 30	98.898 ± 0.018	129 ± 20	103 ± 22	87.8 ± 1.3	108 ± 26	110 ± 7.7	86.7 ± 1.2	119 ± 10	110 ± 34	relative cell number [2]: 77.9 ± 22; relative cell number [4]: 91.6 ± 17; relative cell number [6]: 78.9 ± 32; relative cell number [8]: 101 ± 9.1; relative cell number [10]: 88 ± 15; relative cell number [12]: 98.2 ± 24; relative cell number [15]: 79.1 ± 28; relative cell number [16]: 93.1 ± 4.1; relative cell number [17]: 70.3 ± 17; relative cell number [18]: 81 ± 4.3; relative cell number [19]: 92.8 ± 37; relative cell number [20]: 80.2 ± 39; relative cell number (sgRNA knockout: sgXBP1, 10 nM): 117 ± 6.5; relative cell number (sgRNA knockout: sgXBP1, 100 nM): 106 ± 16; relative cell number [21]: 85.5 ± 11; relative cell number [22]: 93.1 ± 0.77
Cc1nc(Nc2n[nH]c3c2CN(C(=O)N[C@H](CN(C)C)c2ccccc2)C3(C)C)c2sccc2n1	45.1 ± 9.2	43 ± 6.8	29 ± 6.8	49.4 ± 18	49.8 ± 2.3	18.8 ± 0.54	54.3 ± 15	35 ± 1.6	20.8 ± 4.2	49.8 ± 6.6	35.3 ± 2.3	27.3 ± 4	61 ± 5.6	52.3 ± 6.4	22.5 ± 1.8	48.7 ± 14	45.3 ± 11	23 ± 0.3	58.6 ± 2.7	30.9 ± 9.4	relative cell number [2]: 3.33 ± 0.62; relative cell number [4]: 6.48 ± 1.9; relative cell number [6]: 4.03 ± 0.17; relative cell number [8]: 3.31 ± 0.52; relative cell number [10]: 4.53 ± 0.72; relative cell number [12]: 2.51 ± 0.55; relative cell number [15]: 23.3 ± 3.2; relative cell number [16]: 4.04 ± 1.4; relative cell number [17]: 43.1 ± 18; relative cell number [18]: 31.1 ± 2.8; relative cell number [19]: 15.7 ± 7.6; relative cell number [20]: 1.72 ± 0.41; relative cell number (sgRNA knockout: sgXBP1, 10 nM): 54.5 ± 0.58; relative cell number (sgRNA knockout: sgXBP1, 100 nM): 43.8 ± 12; relative cell number [21]: 24.7 ± 0.38; relative cell number [22]: 2.79 ± 0.91
C[C@]12CC[C@H](O)CC1=CC[C@@H]1[C@@H]2CC[C@]2(C)C(c3cccnc3)=CC[C@@H]12 [Abiraterone]	105 ± 8.3	109 ± 29	103 ± 8.2	128 ± 9.5	129 ± 15	115 ± 53	137 ± 11	90.5 ± 6.7	111 ± 28	111 ± 8.5	116 ± 2.9	97.8 ± 18	105 ± 23	101 ± 4.5	110 ± 1.8	121 ± 1	101.5 ± 0.76	101 ± 6.7	101 ± 30	101 ± 20	relative cell number (sgRNA knockout: sgATF3, 1 nM): 123 ± 8.6; relative cell number (sgRNA knockout: sgATF4, 1 nM): 86 ± 11; relative cell number (sgRNA knockout: sgATF6, 1 nM): 107 ± 51; relative cell number (sgRNA knockout: sgATG7, 1 nM): 115 ± 9.3; relative cell number (sgRNA knockout: sgERN1, 1 nM): 110 ± 3.3; relative cell number (sgRNA knockout: sgHSF2, 1 nM): 97.45 ± 0.59; relative cell number (sgRNA knockout: sgNFE2L2, 1 nM): 117 ± 1.9; relative cell number [15]: 100 ± 26; relative cell number (sgRNA knockout: sgSLC35F2, 1 nM): 102 ± 36; relative cell number [17]: 108 ± 39; relative cell number [18]: 61.8 ± 2.3; relative cell number [19]: 95.8 ± 7.2; relative cell number (sgRNA knockout: sgXBP1, 1 nM): 111.8 ± 0.8; relative cell number (sgRNA knockout: sgXBP1, 10 nM): 103 ± 5; relative cell number (sgRNA knockout: sgXBP1, 100 nM): 89.5 ± 22; relative cell number [21]: 99.8 ± 6.6
